{"source": "PubChem BioAssay AID1053208, Peter MacCallum Cancer Centre – 2014", "test": "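Find knock-downs that sensitise mouse osteosarcoma cells to doxorubicin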 (primary screen)", "cells": "mouse osteosarcoma cells, early-passage culture from an engineered mouse model of fibroblastic bone tumour", "reagents": "siRNA pool against mouse genes, 40 nM", "duration": "about 120 h (48 h before drug, then 72 h with drug)", "treatment": "doxorubicin 100 nM for 72 h, roughly 30-40% inhibitory dose", "measured": "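Luminescent ATP signal taken as viability with or without 100 nM doxorubicin for 72 h; mean of two wells set against non-targeting siRNA and turned into robust z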", "reading the numbers": "viability z-score with doxorubicin: higher = more viable cells under doxorubicin; viability z-score without drug: higher = more viable cells with knock-down alone", "rule for the call": "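a pool counts as active when its viability z-score with doxorubicin is -2 or below and its z-score without drug lies between -2 and 2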", "note": "The deposit covers about 17,000 reagents; below is a random part of them. Over the whole deposit, 788 (4.7%) were called active. 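Calls rest on z-score classes alone; an extra cut-off of viability at most 70% of control was not applied to them.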 Further read-outs or replicates are left out here."}
{"gene": "Habp4", "combined z-score class": "no change with or without drug", "viability z-score with doxorubicin": -0.67, "viability z-score without drug": -0.34, "Call": "inactive"}
{"gene": "Lce3b", "combined z-score class": "high cell count with doxorubicin only", "viability z-score with doxorubicin": 3.04, "viability z-score without drug": 0.84, "Call": "inactive"}
{"gene": "Slc25a13", "combined z-score class": "no change with or without drug", "viability z-score with doxorubicin": 0, "viability z-score without drug": -0.67, "Call": "inactive"}
{"gene": "Jak2", "combined z-score class": "no change with or without drug", "viability z-score with doxorubicin": 0.79, "viability z-score without drug": 0.84, "Call": "inactive"}
{"gene": "Vps37d", "combined z-score class": "high cell count without drug only", "viability z-score with doxorubicin": 0.9, "viability z-score without drug": 2.19, "Call": "inactive"}

Sorted by “viability z-score without drug” (low to high): some entries from above
{"gene": "Habp4", "combined z-score class": "no change with or without drug", "viability z-score with doxorubicin": -0.67, "viability z-score without drug": -0.34, "Call": "inactive"}
{"gene": "Lce3b", "combined z-score class": "high cell count with doxorubicin only", "viability z-score with doxorubicin": 3.04, "viability z-score without drug": 0.84, "Call": "inactive"}

Further results follow:
{"gene": "Or12k5", "combined z-score class": "no change with or without drug", "viability z-score with doxorubicin": 0, "viability z-score without drug": -0.51, "Call": "inactive"}
{"gene": "Naa35", "combined z-score class": "no change with or without drug", "viability z-score with doxorubicin": 0.79, "viability z-score without drug": 0.17, "Call": "inactive"}
{"gene": "Ankrd10", "combined z-score class": "no change with or without drug", "viability z-score with doxorubicin": 0.22, "viability z-score without drug": 0.84, "Call": "inactive"}
{"gene": "Katna1", "combined z-score class": "no change with or without drug", "viability z-score with doxorubicin": -1.57, "viability z-score without drug": 0.51, "Call": "inactive"}
{"gene": "Synpr", "combined z-score class": "no change with or without drug", "viability z-score with doxorubicin": 1.01, "viability z-score without drug": 0.84, "Call": "inactive"}
{"gene": "Ncam2", "combined z-score class": "no change with or without drug", "viability z-score with doxorubicin": -0.22, "viability z-score without drug": -1.35, "Call": "inactive"}
{"gene": "Cdc50a", "combined z-score class": "low cell count with doxorubicin only", "viability z-score with doxorubicin": -2.92, "viability z-score without drug": -0.67, "Call": "active"}
